{
  "sequences": {"note": "Protein sequences, listed by entry. Tags and fused reporters are not part of them.", "UniProt Q9GZU1, whole entry, looked up": "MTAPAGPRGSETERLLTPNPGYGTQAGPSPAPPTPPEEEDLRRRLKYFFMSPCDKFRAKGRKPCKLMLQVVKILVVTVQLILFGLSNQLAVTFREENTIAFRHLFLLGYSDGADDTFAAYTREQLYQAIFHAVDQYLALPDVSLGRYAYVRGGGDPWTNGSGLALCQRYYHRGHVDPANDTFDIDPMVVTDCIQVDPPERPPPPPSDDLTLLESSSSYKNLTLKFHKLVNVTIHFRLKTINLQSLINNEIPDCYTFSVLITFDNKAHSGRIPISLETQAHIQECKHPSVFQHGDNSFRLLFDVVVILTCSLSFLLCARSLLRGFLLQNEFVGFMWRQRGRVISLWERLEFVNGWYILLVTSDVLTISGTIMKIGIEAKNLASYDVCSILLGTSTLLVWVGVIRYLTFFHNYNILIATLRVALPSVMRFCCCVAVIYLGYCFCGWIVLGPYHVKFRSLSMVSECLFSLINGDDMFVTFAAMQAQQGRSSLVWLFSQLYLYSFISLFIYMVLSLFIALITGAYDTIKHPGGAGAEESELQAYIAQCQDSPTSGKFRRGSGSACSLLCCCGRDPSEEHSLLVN"},
  "source": "PubChem BioAssay AID624415",
  "about": "(National Center for Advancing Translational Sciences (NCATS), 2012)",
  "note": "In all, about 390,000 compounds went through this assay and about 60 (0.02%) were called active. This list was built around the results that the source calls inconclusive (neither active nor inactive); the mix of calls is not that of the screen. Cut-off read from the data, not from the text of the source: active = activity change below about -50%; inconclusive = between about -30% and that limit; inactive = weaker than that.",
  "data": [
    {"molecular_target": "Mucolipin-1 (Homo sapiens) (UniProt Q9GZU1)", "assay": "qHTS for Inhibitors of the Human Mucolipin Transient Receptor Potential 1 (TRPML1);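 note: stimulus is agonist 54-4 at its EC80 concentration; % is set by controls: 0 for no effect and ±100 for the full control effect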", "settings": "TRPML1-inducible cells, Ca2+ dye fluorescence, FDSS; hits give low values; inhibition of EC80 agonist-evoked calcium signal", "method_in_brief": "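Tet-induced TRPML1-DL cells loaded with Ca8 no-wash calcium dye were read kinetically on FDSS. Compound addition was followed by EC80 agonist 54-4 (4 uM final); inhibition was read over 110 s.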", "values": [
      {"molecule": "COc1ccc(NC2CCCN(C(=O)CSc3ccncc3)C2)cc1", "note": "(stereo not given)", "activity change, negative = inhibition": "inconclusive: -31.9%"},
      {"molecule": "CCCCC(=O)Nc1ccc2oc(-c3cccnc3)nc2c1", "activity change, negative = inhibition": "inconclusive: -31.9%"},
      {"molecule": "Cc1nc2nc(SCC(=O)NCCCN3CCCC(C)C3)nn2c(C)c1Cc1ccccc1Cl", "note": "(stereo not given)", "activity change, negative = inhibition": "inconclusive: -30.4%"},
      {"molecule": "O=c1c(N2CCOCC2)coc2ccccc12", "activity change, negative = inhibition": "inactive: -20.6%"},
      {"molecule": "CCCc1cc(=O)[nH]c(Nc2ccc(C)c(O)c2)n1", "activity change, negative = inhibition": "inconclusive: -33.6%"},
      {"molecule": "CCOc1ccc(CNCc2ccccc2Cl)cc1", "activity change, negative = inhibition": "inactive: 0.264%"},
      {"molecule": "CCC(=O)Nc1cc(-c2nc3ccccc3s2)c(Cl)cc1Cl", "activity change, negative = inhibition": "inactive: -11.1%"},
      {"molecule": "CCOC(=O)c1ccccc1NC(=O)C1COc2ccccc2O1", "note": "(stereo not given)", "activity change, negative = inhibition": "inconclusive: -31.2%"},
      {"molecule": "CC(NC(=O)c1cccs1)C(c1cccs1)N1CCN(c2ccccc2)CC1", "note": "(stereo not given)", "activity change, negative = inhibition": "inconclusive: -31.6%"},
      {"molecule": "COc1cc(Nc2nc3ccccc3nc2NS(=O)(=O)c2ccc([N+](=O)[O-])cc2)cc(OC)c1OC", "activity change, negative = inhibition": "inconclusive: -46.7%"},
      {"molecule": "CCC(=O)Nc1cccc(NC(=S)NC(=O)c2ccccc2C)c1", "activity change, negative = inhibition": "inconclusive: -31.8%"},
      {"molecule": "Cc1c(C(=O)OCC(=O)Nc2ccc(S(N)(=O)=O)cc2)oc2c1ccc1ccccc12", "activity change, negative = inhibition": "inconclusive: -33.3%"},
      {"molecule": "c1ccc(-n2cccc2CNC2CCCCC2)cc1", "activity change, negative = inhibition": "inactive: -6.18%"},
      {"molecule": "O=C(Oc1ccc2c(c1)C(=O)c1ccccc1CO2)c1ccccc1", "activity change, negative = inhibition": "inconclusive: -30.5%"},
      {"molecule": "COc1ccc(Cl)cc1NC(=O)CCCS(=O)(=O)c1nc(-c2ccc(OC)c(OC)c2)cc(C(F)(F)F)n1", "activity change, negative = inhibition": "inactive: 10.4%"},
      {"molecule": "Nc1nnc(-c2ccc(F)cc2)s1", "activity change, negative = inhibition": "inconclusive: -32.3%"},
      {"molecule": "CS(=O)(=O)N(CC(=O)NCc1ccc2c(c1)OCO2)c1cccc(Cl)c1", "activity change, negative = inhibition": "inconclusive: -30.4%"},
      {"molecule": "COc1ccc(C2=C(C)C(=O)N(Cc3ccc(C(=O)Nc4cc(C)ccc4C)cc3)S2(=O)=O)cc1", "activity change, negative = inhibition": "inactive: -5.47%"},
      {"molecule": "COc1ccc2c(c1)[nH]c1c(N3CCSCC3)ncnc12", "activity change, negative = inhibition": "inactive: -0.607%"},
      {"molecule": "COc1ccc(-c2nc(Cn3c(SCc4ccccc4F)nc4ccncc43)c(C)o2)cc1OC", "activity change, negative = inhibition": "inactive: 5.94%"},
      {"molecule": "COc1cc(NC(=O)COC(=O)c2cnccn2)c(C)cc1[N+](=O)[O-]", "activity change, negative = inhibition": "inconclusive: -31.7%"},
      {"molecule": "O=S(=O)(c1ccccc1)N1CCN(c2nnnn2-c2ccccc2)CC1", "activity change, negative = inhibition": "inconclusive: -34.5%"},
      {"molecule": "c1ccc(OCCSc2ncnc3nc[nH]c23)cc1", "activity change, negative = inhibition": "inactive: 0.0626%"},
      {"molecule": "CCc1nc2ccc(C(=O)N3CCN(C(=O)c4ccco4)CC3)cn2c1N(C)Cc1nccn1C", "activity change, negative = inhibition": "inconclusive: -30.9%"},
      {"molecule": "O=C(CCS(=O)(=O)c1ccccc1)NC12CC3CC(CC(C3)C1)C2", "activity change, negative = inhibition": "inconclusive: -45.1%"}
    ]}
  ]
}
